{"sequences": {"note": "Protein sequences, listed by entry. Tags and fused reporters are not part of them. Lines headed by an entry give the natural chain unless they say otherwise; changes in a name come on top.", "UniProt Q96T83": "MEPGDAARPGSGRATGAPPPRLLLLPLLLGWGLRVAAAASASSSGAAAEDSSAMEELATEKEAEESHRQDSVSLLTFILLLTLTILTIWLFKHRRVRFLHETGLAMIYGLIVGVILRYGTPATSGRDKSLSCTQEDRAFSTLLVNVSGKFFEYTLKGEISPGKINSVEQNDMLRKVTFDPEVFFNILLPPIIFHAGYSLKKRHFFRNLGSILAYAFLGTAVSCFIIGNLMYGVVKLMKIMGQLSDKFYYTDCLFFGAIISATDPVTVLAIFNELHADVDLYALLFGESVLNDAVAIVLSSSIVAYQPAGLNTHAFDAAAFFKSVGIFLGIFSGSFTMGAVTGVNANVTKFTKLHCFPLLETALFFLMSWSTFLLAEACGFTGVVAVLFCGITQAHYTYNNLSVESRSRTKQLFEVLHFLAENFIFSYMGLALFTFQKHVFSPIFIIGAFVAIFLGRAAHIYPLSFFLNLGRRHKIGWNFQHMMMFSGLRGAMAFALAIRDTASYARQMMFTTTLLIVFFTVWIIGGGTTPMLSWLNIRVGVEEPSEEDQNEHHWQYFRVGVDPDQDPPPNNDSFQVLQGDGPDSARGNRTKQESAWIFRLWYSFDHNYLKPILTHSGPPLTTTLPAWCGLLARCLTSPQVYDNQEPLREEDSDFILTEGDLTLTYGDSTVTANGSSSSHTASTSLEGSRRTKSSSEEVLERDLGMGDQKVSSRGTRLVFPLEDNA", "UniProt O75352": "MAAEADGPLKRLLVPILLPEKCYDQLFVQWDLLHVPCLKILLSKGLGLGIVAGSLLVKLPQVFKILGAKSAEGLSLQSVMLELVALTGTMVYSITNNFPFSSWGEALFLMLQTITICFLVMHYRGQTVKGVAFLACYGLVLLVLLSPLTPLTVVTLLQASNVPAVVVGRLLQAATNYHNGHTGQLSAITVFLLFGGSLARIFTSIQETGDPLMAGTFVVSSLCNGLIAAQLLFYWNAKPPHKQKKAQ", "UniProt Q9C0C7": "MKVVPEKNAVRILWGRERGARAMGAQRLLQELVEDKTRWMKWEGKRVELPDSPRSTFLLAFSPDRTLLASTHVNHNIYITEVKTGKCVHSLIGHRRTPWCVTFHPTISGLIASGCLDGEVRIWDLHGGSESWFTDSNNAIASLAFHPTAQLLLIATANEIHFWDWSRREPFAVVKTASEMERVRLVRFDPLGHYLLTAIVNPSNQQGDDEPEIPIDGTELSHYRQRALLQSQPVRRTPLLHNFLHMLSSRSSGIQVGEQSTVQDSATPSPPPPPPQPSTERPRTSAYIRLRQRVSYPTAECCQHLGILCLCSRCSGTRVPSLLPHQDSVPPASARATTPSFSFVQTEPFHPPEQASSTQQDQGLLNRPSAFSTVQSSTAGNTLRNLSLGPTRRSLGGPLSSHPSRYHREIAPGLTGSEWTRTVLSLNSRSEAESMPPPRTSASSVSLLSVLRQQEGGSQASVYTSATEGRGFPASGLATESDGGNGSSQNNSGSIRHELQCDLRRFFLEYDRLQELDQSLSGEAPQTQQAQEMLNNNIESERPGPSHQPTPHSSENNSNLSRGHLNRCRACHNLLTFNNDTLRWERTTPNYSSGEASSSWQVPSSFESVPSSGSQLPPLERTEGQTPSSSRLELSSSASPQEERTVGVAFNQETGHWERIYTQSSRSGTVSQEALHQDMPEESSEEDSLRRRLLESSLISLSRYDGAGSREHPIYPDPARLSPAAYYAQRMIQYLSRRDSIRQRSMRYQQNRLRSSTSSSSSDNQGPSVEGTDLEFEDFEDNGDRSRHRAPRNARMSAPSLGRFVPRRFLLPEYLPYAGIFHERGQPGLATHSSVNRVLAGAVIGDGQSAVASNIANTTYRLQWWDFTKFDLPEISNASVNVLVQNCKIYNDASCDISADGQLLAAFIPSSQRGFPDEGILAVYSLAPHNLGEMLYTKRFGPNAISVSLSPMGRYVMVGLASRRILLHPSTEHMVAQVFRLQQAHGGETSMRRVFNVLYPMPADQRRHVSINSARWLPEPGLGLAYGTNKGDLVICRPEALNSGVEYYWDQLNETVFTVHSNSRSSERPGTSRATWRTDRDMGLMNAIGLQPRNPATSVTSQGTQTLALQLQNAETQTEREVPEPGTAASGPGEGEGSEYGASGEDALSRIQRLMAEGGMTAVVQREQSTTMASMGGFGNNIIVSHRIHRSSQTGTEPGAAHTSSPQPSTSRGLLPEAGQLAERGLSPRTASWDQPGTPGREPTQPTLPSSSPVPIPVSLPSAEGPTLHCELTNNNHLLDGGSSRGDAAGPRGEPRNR", "UniProt Q9Y4X4": "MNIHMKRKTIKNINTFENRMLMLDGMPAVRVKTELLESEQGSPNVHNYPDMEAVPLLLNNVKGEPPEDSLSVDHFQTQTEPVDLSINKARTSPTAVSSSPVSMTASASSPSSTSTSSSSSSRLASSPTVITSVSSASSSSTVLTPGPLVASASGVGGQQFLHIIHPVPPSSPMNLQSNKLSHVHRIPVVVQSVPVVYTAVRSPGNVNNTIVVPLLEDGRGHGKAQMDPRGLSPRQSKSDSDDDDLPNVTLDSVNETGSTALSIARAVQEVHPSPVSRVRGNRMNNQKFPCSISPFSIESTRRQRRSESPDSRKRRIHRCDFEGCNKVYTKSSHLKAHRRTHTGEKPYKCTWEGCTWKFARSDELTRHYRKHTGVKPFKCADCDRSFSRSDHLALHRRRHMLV", "UniProt Q9Y3A5": "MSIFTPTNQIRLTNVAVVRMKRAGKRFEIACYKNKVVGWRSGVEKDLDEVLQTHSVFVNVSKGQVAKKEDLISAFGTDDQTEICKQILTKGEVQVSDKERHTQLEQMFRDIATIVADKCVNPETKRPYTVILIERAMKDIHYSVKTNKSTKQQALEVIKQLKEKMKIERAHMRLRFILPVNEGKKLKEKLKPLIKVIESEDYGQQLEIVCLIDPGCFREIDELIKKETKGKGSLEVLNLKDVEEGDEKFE", "UniProt P81877": "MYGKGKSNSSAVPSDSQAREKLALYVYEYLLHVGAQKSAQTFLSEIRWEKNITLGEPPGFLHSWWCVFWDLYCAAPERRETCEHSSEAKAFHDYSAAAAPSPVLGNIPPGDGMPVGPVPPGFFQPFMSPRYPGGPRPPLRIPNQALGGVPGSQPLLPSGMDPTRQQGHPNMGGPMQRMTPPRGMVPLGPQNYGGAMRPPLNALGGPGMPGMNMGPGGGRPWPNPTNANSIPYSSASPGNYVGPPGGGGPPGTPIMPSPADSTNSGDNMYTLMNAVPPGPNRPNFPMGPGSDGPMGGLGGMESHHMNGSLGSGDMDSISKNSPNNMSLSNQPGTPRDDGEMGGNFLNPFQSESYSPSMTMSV", "UniProt Q86WJ1": "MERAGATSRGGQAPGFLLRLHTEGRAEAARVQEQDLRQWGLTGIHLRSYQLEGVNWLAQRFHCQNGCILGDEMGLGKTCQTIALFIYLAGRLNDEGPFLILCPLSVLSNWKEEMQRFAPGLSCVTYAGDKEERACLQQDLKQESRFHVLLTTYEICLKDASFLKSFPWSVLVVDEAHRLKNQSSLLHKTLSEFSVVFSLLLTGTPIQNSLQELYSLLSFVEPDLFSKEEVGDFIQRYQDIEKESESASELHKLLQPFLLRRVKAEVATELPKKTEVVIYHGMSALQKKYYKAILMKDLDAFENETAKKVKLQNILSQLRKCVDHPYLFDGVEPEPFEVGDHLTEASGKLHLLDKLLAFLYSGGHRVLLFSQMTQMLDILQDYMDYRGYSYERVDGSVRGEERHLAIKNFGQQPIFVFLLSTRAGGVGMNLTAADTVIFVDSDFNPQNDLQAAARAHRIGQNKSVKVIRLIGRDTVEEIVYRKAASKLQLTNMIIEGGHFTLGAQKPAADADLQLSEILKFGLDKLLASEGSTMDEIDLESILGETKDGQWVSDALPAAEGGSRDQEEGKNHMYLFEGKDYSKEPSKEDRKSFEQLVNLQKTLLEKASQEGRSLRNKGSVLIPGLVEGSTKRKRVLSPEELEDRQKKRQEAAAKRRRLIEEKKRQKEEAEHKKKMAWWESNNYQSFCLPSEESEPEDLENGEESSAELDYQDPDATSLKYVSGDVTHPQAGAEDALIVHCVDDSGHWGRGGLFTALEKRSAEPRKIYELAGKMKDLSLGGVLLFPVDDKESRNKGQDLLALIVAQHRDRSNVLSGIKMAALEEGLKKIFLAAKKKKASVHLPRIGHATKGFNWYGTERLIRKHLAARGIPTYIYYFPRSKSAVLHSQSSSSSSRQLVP", "UniProt O94761": "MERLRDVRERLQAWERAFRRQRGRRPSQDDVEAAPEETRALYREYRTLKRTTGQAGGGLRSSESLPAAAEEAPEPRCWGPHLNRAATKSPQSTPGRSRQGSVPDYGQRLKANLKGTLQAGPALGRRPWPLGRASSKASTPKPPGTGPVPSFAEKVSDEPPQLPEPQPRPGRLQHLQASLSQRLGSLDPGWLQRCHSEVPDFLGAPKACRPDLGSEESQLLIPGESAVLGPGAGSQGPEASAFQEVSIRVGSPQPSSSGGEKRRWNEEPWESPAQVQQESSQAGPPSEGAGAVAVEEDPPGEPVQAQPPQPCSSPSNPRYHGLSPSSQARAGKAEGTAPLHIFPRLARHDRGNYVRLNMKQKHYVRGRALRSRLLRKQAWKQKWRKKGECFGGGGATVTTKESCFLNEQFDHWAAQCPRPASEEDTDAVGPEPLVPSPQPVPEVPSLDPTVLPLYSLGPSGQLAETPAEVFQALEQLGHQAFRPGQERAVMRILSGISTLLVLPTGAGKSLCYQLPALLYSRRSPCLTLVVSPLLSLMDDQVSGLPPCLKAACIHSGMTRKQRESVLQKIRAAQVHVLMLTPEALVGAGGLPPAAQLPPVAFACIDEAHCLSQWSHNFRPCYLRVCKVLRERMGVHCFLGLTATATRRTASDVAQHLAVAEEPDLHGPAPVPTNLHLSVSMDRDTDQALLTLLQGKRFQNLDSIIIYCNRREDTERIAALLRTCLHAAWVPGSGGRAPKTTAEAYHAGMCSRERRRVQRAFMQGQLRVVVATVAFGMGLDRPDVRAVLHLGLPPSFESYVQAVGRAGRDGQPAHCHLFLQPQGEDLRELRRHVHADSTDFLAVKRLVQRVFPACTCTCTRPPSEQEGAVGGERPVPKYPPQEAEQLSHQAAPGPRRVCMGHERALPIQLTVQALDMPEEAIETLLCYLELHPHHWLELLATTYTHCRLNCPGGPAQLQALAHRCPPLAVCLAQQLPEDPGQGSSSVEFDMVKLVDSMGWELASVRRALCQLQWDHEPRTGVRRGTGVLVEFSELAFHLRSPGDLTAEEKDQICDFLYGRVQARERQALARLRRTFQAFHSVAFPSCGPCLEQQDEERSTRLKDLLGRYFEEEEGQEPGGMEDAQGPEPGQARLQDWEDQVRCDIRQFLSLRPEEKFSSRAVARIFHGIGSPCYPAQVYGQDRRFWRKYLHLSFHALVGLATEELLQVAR", "UniProt Q9UHQ1": "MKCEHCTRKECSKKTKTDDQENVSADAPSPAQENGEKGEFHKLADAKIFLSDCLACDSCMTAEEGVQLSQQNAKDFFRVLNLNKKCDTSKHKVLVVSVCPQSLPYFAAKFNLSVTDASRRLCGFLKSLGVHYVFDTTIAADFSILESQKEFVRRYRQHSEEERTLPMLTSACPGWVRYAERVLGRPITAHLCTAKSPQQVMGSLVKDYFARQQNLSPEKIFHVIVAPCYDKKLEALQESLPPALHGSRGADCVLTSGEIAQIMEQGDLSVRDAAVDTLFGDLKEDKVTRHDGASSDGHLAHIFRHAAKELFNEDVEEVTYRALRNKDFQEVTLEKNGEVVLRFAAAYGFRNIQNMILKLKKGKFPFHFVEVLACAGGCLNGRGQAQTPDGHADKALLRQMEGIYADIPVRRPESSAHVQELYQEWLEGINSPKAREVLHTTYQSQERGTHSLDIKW", "UniProt O15484": "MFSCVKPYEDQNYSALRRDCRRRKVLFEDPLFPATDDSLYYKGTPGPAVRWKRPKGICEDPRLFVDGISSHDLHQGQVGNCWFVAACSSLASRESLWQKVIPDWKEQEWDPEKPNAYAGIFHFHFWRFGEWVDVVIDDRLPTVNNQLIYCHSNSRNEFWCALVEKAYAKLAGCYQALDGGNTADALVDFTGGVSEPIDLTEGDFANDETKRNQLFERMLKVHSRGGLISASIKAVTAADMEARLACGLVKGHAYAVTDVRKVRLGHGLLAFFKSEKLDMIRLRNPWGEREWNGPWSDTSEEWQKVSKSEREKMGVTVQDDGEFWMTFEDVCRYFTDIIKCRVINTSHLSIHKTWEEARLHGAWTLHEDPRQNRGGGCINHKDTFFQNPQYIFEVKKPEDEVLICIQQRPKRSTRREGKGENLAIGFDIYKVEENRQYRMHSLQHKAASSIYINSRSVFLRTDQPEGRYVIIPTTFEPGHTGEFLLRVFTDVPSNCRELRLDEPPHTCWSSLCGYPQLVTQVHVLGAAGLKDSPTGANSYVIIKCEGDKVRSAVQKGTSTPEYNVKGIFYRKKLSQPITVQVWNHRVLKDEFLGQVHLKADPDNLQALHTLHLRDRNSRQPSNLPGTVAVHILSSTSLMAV", "UniProt Q15651": "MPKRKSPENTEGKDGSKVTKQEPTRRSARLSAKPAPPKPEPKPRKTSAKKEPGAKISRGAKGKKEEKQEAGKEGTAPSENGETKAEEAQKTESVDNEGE"}, "source": "the supplement of paper PMC6411743", "note": "± gives the standard deviation of the averaged measurements. This is a selection; strong and weak results do not stand in their true shares.", "data": [{"compound": "Nc1ncnc2c1ncn2[C@@H]1O[C@H](COP(=O)(O)OP(=O)(O)OP(=O)(O)O)[C@@H](O)[C@H]1O [adenosine triphosphate]", "experiment": "NP40-soluble protein abundance relative to vehicle (solubility fold change) (ratio); higher = more soluble protein in presence of ATP", "conditions": "concentration: 6mM", "summary_of_the_method": "(§1)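 In three independent experiments, Jurkat crude lysate made by Dounce homogenisation was treated for 10 min at room temperature and then 3 min at 37 °C with eight concentrations ranging from 0.1 to 10 mM. It was then solubilised with 0.8% NP40 plus benzonase for 60 min at 4 °C and ultracentrifuged. The supernatant was TMT-labelled for LC-MS/MS, and each value is the fold change against the detergent-processed vehicle for the same replicate, using vsn-normalised intensities.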", "values": [{"target": "A0A087WXD1|Q96T83 (UniProt Q96T83)", "NP40-soluble protein abundance": "0.911 ± 0.1"}, {"target": "A0A0C4DFN1|Q8IWA4 (UniProt Q8IWA4)", "NP40-soluble protein abundance": "0.973 ± 0.064"}, {"target": "A0A087WV81|I3L295 and related entries (UniProt Q9H3L2+O75352+Q1HDL3+J3QS48+I3L1D2+J3QW43+J3QRD5+J3KT75+I3L295)", "NP40-soluble protein abundance": "0.975 ± 0.072"}, {"target": "A0A075B6T1|Q9C0C7 and related entries (UniProt Q9C0C7)", "NP40-soluble protein abundance": "0.935 ± 0.097"}, {"target": "A0A0A0MRU8|Q9Y4X4 (UniProt Q9Y4X4)", "NP40-soluble protein abundance": "1.15 ± 0.1"}]}, {"compound": "Nc1ncnc2c1ncn2[C@@H]1O[C@H](COP(=O)(O)OP(=O)(O)OP(=O)(O)O)[C@@H](O)[C@H]1O [adenosine triphosphate]", "experiment": "NP40-soluble protein abundance relative to vehicle (solubility fold change) (ratio); higher = more soluble protein in presence of ATP", "conditions": "concentration: 8mM", "summary_of_the_method": "as §1", "values": [{"target": "A0A087WYL7|G3V4A5 and related entries (UniProt O75586)", "NP40-soluble protein abundance": "1.04 ± 0.039"}, {"target": "A0A087X020|Q9Y3A5 (UniProt Q9Y3A5)", "NP40-soluble protein abundance": "1.02 ± 0.021"}, {"target": "A0A0D9SFE4|A0A0D9SFB1|A0A0U1RQP1|Q05193 and related entries (UniProt Q05193)", "NP40-soluble protein abundance": "0.988 ± 0.014"}, {"target": "A0A0B4J2F8|A6NFM0 and related entries (UniProt Q9GZM3+Q9H1A7+P52435+F6S314+E2QRJ6+A6NFM0)", "NP40-soluble protein abundance": "0.94 ± 0.053"}, {"target": "A0A087X159|P81877 and related entries (UniProt P81877)", "NP40-soluble protein abundance": "0.936 ± 0.023"}, {"target": "A0A0A0MQW0|A0A0A0MR39 (UniProt Q9P2K5)", "NP40-soluble protein abundance": "1.1 ± 0.016"}, {"target": "A0A087WUD1 (UniProt Q6DD87)", "NP40-soluble protein abundance": "0.965 ± 0.014"}, {"target": "A0A087WTU9|A0A087WZY3|Q8TCU4 and related entries (UniProt Q8TCU4)", "NP40-soluble protein abundance": "0.91 ± 0.017"}, {"target": "A0A0A0MSH9|Q86WJ1 and related entries (UniProt Q86WJ1)", "NP40-soluble protein abundance": "1.01 ± 0.029"}, {"target": "A0A087WZ30|A0A087X072|O94761 (UniProt O94761)", "NP40-soluble protein abundance": "1 ± 0.028"}, {"target": "A0A0A0MSJ9|Q15283 and related entries (UniProt Q15283)", "NP40-soluble protein abundance": "1.02 ± 0.068"}, {"target": "A0A0B4J2A0|Q9UHJ6 (UniProt Q9UHJ6)", "NP40-soluble protein abundance": "0.94 ± 0.029"}, {"target": "A0A087WVF4|O14646 and related entries (UniProt O14646)", "NP40-soluble protein abundance": "1.14 ± 0.059"}, {"target": "A0A0D9SEI0|Q9P0P8 (UniProt Q9P0P8)", "NP40-soluble protein abundance": "0.97 ± 0.12"}, {"target": "A0A0B4J1W3|Q9BXJ9 (UniProt Q9BXJ9)", "NP40-soluble protein abundance": "1.03 ± 0.03"}, {"target": "A0A0C4DG17|C9J9K3 and related entries (UniProt P08865)", "NP40-soluble protein abundance": "0.771 ± 0.1"}, {"target": "A0A0A0MRP6|B7ZLQ5 and related entries (UniProt P28370)", "NP40-soluble protein abundance": "1.16 ± 0.066"}, {"target": "A0A087WVS8|Q70IA6 and related entries (UniProt Q70IA6)", "NP40-soluble protein abundance": "0.949 ± 0.028"}, {"target": "A0A0C4DG44|O43464 and related entries (UniProt O43464)", "NP40-soluble protein abundance": "1.01 ± 0.017"}, {"target": "A0A087X0H9|Q5T8P6 and related entries (UniProt Q5T8P6)", "NP40-soluble protein abundance": "1.187 ± 0.0065"}, {"target": "A0A087X0M0|Q7Z5L2 and related entries (UniProt Q7Z5L2)", "NP40-soluble protein abundance": "0.892 ± 0.047"}, {"target": "A0A087WUB9|Q8WYA6 (UniProt Q8WYA6)", "NP40-soluble protein abundance": "1.1 ± 0.029"}, {"target": "A0A088AWN8|Q9UHQ1 and related entries (UniProt Q9UHQ1)", "NP40-soluble protein abundance": "0.996 ± 0.055"}, {"target": "A0A0C4DG78|M0R3C6 and related entries (UniProt Q8TBC5)", "NP40-soluble protein abundance": "0.884 ± 0.065"}, {"target": "A0A0C4DGV5|O95218 and related entries (UniProt O95218)", "NP40-soluble protein abundance": "0.702 ± 0.054"}, {"target": "A0A087X0C8|O15484 and related entries (UniProt O15484)", "NP40-soluble protein abundance": "1.06 ± 0.038"}, {"target": "A0A087WUS0|E7ETK0 and related entries (UniProt P62847)", "NP40-soluble protein abundance": "0.637 ± 0.17"}, {"target": "A0A0B4J294|H3BP13 and related entries (UniProt Q9UL33)", "NP40-soluble protein abundance": "0.94 ± 0.048"}, {"target": "A0A0C4DH16|B8ZZS0 and related entries (UniProt Q9NYM9)", "NP40-soluble protein abundance": "0.953 ± 0.06"}, {"target": "A0A087WZE9|Q15651 (UniProt Q15651)", "NP40-soluble protein abundance": "1.44 ± 0.14"}, {"target": "A0A0C4DGS1|P39656 (UniProt P39656)", "NP40-soluble protein abundance": "0.999 ± 0.067"}, {"target": "A0A0C4DH01|Q9NVU0 and related entries (UniProt Q9NVU0)", "NP40-soluble protein abundance": "1.05 ± 0.12"}, {"target": "A0A087WXD1|Q96T83 (UniProt Q96T83)", "NP40-soluble protein abundance": "0.939 ± 0.058"}, {"target": "A0A0C4DFN1|Q8IWA4 (UniProt Q8IWA4)", "NP40-soluble protein abundance": "0.964 ± 0.035"}, {"target": "A0A087WV81|I3L295 and related entries (UniProt Q9H3L2+O75352+Q1HDL3+J3QS48+I3L1D2+J3QW43+J3QRD5+J3KT75+I3L295)", "NP40-soluble protein abundance": "0.9303 ± 0.0046"}, {"target": "A0A075B6T1|Q9C0C7 and related entries (UniProt Q9C0C7)", "NP40-soluble protein abundance": "0.93 ± 0.099"}, {"target": "A0A0A0MRU8|Q9Y4X4 (UniProt Q9Y4X4)", "NP40-soluble protein abundance": "0.968 ± 0.13"}]}, {"compound": "Nc1ncnc2c1ncn2[C@@H]1O[C@H](COP(=O)(O)OP(=O)(O)OP(=O)(O)O)[C@@H](O)[C@H]1O [adenosine triphosphate]", "experiment": "NP40-soluble protein abundance relative to vehicle (solubility fold change) (ratio); higher = more soluble protein in presence of ATP", "conditions": "concentration: 10mM", "summary_of_the_method": "as §1", "values": [{"target": "A0A087WYL7|G3V4A5 and related entries (UniProt O75586)", "NP40-soluble protein abundance": "0.978 ± 0.076"}, {"target": "A0A087X020|Q9Y3A5 (UniProt Q9Y3A5)", "NP40-soluble protein abundance": "1.01 ± 0.026"}, {"target": "A0A0D9SFE4|A0A0D9SFB1|A0A0U1RQP1|Q05193 and related entries (UniProt Q05193)", "NP40-soluble protein abundance": "0.976 ± 0.03"}, {"target": "A0A0B4J2F8|A6NFM0 and related entries (UniProt Q9GZM3+Q9H1A7+P52435+F6S314+E2QRJ6+A6NFM0)", "NP40-soluble protein abundance": "0.941 ± 0.075"}, {"target": "A0A087X159|P81877 and related entries (UniProt P81877)", "NP40-soluble protein abundance": "0.926 ± 0.053"}, {"target": "A0A0A0MQW0|A0A0A0MR39 (UniProt Q9P2K5)", "NP40-soluble protein abundance": "1.11 ± 0.033"}, {"target": "A0A087WUD1 (UniProt Q6DD87)", "NP40-soluble protein abundance": "0.976 ± 0.03"}, {"target": "A0A087WTU9|A0A087WZY3|Q8TCU4 and related entries (UniProt Q8TCU4)", "NP40-soluble protein abundance": "0.865 ± 0.064"}, {"target": "A0A0A0MSH9|Q86WJ1 and related entries (UniProt Q86WJ1)", "NP40-soluble protein abundance": "0.987 ± 0.026"}, {"target": "A0A087WZ30|A0A087X072|O94761 (UniProt O94761)", "NP40-soluble protein abundance": "1.1 ± 0.24"}, {"target": "A0A0A0MSJ9|Q15283 and related entries (UniProt Q15283)", "NP40-soluble protein abundance": "1.01 ± 0.075"}, {"target": "A0A0B4J2A0|Q9UHJ6 (UniProt Q9UHJ6)", "NP40-soluble protein abundance": "0.97 ± 0.017"}, {"target": "A0A087WVF4|O14646 and related entries (UniProt O14646)", "NP40-soluble protein abundance": "1.26 ± 0.046"}, {"target": "A0A0D9SEI0|Q9P0P8 (UniProt Q9P0P8)", "NP40-soluble protein abundance": "0.974 ± 0.07"}, {"target": "A0A0B4J1W3|Q9BXJ9 (UniProt Q9BXJ9)", "NP40-soluble protein abundance": "1.01 ± 0.039"}, {"target": "A0A0C4DG17|C9J9K3 and related entries (UniProt P08865)", "NP40-soluble protein abundance": "0.803 ± 0.08"}, {"target": "A0A0A0MRP6|B7ZLQ5 and related entries (UniProt P28370)", "NP40-soluble protein abundance": "1.18 ± 0.043"}, {"target": "A0A087WVS8|Q70IA6 and related entries (UniProt Q70IA6)", "NP40-soluble protein abundance": "0.965 ± 0.063"}, {"target": "A0A0C4DG44|O43464 and related entries (UniProt O43464)", "NP40-soluble protein abundance": "0.971 ± 0.025"}, {"target": "A0A087X0H9|Q5T8P6 and related entries (UniProt Q5T8P6)", "NP40-soluble protein abundance": "1.22 ± 0.021"}, {"target": "A0A087X0M0|Q7Z5L2 and related entries (UniProt Q7Z5L2)", "NP40-soluble protein abundance": "0.903 ± 0.087"}, {"target": "A0A087WUB9|Q8WYA6 (UniProt Q8WYA6)", "NP40-soluble protein abundance": "1.12 ± 0.041"}, {"target": "A0A088AWN8|Q9UHQ1 and related entries (UniProt Q9UHQ1)", "NP40-soluble protein abundance": "0.963 ± 0.13"}, {"target": "A0A0C4DG78|M0R3C6 and related entries (UniProt Q8TBC5)", "NP40-soluble protein abundance": "0.923 ± 0.065"}, {"target": "A0A0C4DGV5|O95218 and related entries (UniProt O95218)", "NP40-soluble protein abundance": "0.665 ± 0.015"}, {"target": "A0A087X0C8|O15484 and related entries (UniProt O15484)", "NP40-soluble protein abundance": "1.05 ± 0.034"}, {"target": "A0A087WUS0|E7ETK0 and related entries (UniProt P62847)", "NP40-soluble protein abundance": "0.734 ± 0.1"}, {"target": "A0A0B4J294|H3BP13 and related entries (UniProt Q9UL33)", "NP40-soluble protein abundance": "0.946 ± 0.032"}, {"target": "A0A0C4DH16|B8ZZS0 and related entries (UniProt Q9NYM9)", "NP40-soluble protein abundance": "0.816 ± 0.17"}, {"target": "A0A087WZE9|Q15651 (UniProt Q15651)", "NP40-soluble protein abundance": "1.64 ± 0.45"}, {"target": "A0A0C4DGS1|P39656 (UniProt P39656)", "NP40-soluble protein abundance": "0.983 ± 0.07"}, {"target": "A0A0C4DH01|Q9NVU0 and related entries (UniProt Q9NVU0)", "NP40-soluble protein abundance": "1.05 ± 0.14"}, {"target": "A0A087WXD1|Q96T83 (UniProt Q96T83)", "NP40-soluble protein abundance": "0.902 ± 0.16"}, {"target": "A0A0C4DFN1|Q8IWA4 (UniProt Q8IWA4)", "NP40-soluble protein abundance": "0.9814 ± 0.001"}, {"target": "A0A087WV81|I3L295 and related entries (UniProt Q9H3L2+O75352+Q1HDL3+J3QS48+I3L1D2+J3QW43+J3QRD5+J3KT75+I3L295)", "NP40-soluble protein abundance": "0.879 ± 0.024"}, {"target": "A0A075B6T1|Q9C0C7 and related entries (UniProt Q9C0C7)", "NP40-soluble protein abundance": "0.945 ± 0.15"}, {"target": "A0A0A0MRU8|Q9Y4X4 (UniProt Q9Y4X4)", "NP40-soluble protein abundance": "1 ± 0.091"}]}]}
